Laboratory results from patent EP0974057B1.

How the values were obtained:
[1] = target: hK2 (wild type mature hK2) (human); test: hK2 spiked into human serum, Western blot
[2] = target: hK2 (wild type mature hK2) (human); test: protease spiked into human serum, Western blot
[3] = target: prostate-specific antigen protein, hK3 (PSA) (human); test: protease spiked into human serum, Western blot
[4] = target: prostate-specific antigen protein, hK3 (PSA) (human); test: covalent complex formation, SDS-PAGE and Western blot
[5] = target: hK2 (wild type mature hK2) (human); test: covalent complex formation, SDS-PAGE and Western blot with HK1G586.1
[6] = target: hK2 (wild type mature hK2) (human); test: covalent complex formation, Western blot with HK1G586.1, legend of Figure 18

Measured: binding

B1: α2 macroglobulin (MG) (protein, human, UniProt P01023 24-1474, looked up)
chain: SVSGKPQYMVLVPSLLHTETTEKGCVLLSYLNETVTVSASLESVRGNRSLFTDLEAENDVLHCVAFAVPKSSSNEEVMFLTVQVKGPTQEFKKRTTVMVKNEDSLVFVQTDKSIYKPGQTVKFRVVSMDENFHPLNELIPLVYIQDPKGNRIAQWQSFQLEGGLKQFSFPLSSEPFQGSYKVVVQKKSGGRTEHPFTVEEFVLPKFEVQVTVPKIITILEEEMNVSVCGLYTYGKPVPGHVTVSICRKYSDASDCHGEDSQAFCEKFSGQLNSHGCFYQQVKTKVFQLKRKEYEMKLHTEAQIQEEGTVVELTGRQSSEITRTITKLSFVKVDSHFRQGIPFFGQVRLVDGKGVPIPNKVIFIRGNEANYYSNATTDEHGLVQFSINTTNVMGTSLTVRVNYKDRSPCYGYQWVSEEHEEAHHTAYLVFSPSKSFVHLEPMSHELPCGHTQTVQAHYILNGGTLLGLKKLSFYYLIMAKGGIVRTGTHGLLVKQEDMKGHFSISIPVKSDIAPVARLLIYAVLPTGDVIGDSAKYDVENCLANKVDLSFSPSQSLPASHAHLRVTAAPQSVCALRAVDQSVLLMKPDAELSASSVYNLLPEKDLTGFPGPLNDQDNEDCINRHNVYINGITYTPVSSTNEKDMYSFLEDMGLKAFTNSKIRKPKMCPQLQQYEMHGPEGLRVGFYESDVMGRGHARLVHVEEPHTETVRKYFPETWIWDLVVVNSAGVAEVGVTVPDTITEWKAGAFCLSEDAGLGISSTASLRAFQPFFVELTMPYSVIRGEAFTLKATVLNYLPKCIRVSVQLEASPAFLAVPVEKEQAPHCICANGRQTVSWAVTPKSLGNVNFTVSAEALESQELCGTEVPSVPEHGRKDTVIKPLLVEPEGLEKETTFNSLLCPSGGEVSEELSLKLPPNVVEESARASVSVLGDILGSAMQNTQNLLQMPYGCGEQNMVLFAPNIYVLDYLNETQQLTPEIKSKAIGYLNTGYQRQLNYKHYDGSYSTFGERYGRNQGNTWLTAFVLKTFAQARAYIFIDEAHITQALIWLSQRQKDNGCFRSSGSLLNNAIKGGVEDEVTLSAYITIALLEIPLTVTHPVVRNALFCLESAWKTAQEGDHGSHVYTKALLAYAFALAGNQDKRKEVLKSLNEEAVKKDNSVHWERPQKPKAPVGHFYEPQAPSAEVEMTSYVLLAYLTAQPAPTSEDLTSATNIVKWITKQQNAQGGFSSTQDTVVALHALSKYGAATFTRTGKAAQVTIQSSGTFSSKFQVDNNNRLLLQQVSLPELPGEYSMKVTGEGCVYLQTSLKYNILPEKEEFPFALGVQTLPQTCDEPKAHTSFQISLSVSYTGSRSASNMAIVDVKMVSGFIPLKPTVKMLERSNHVSRTEVSSNHVLIYLDKVSNQTLSLFFTVLQDVPVRDLKPAIVKVYDYYETDEFAIAEYNAPCSKDLGNA
binds: all assays above

Results are given in words; binding and its absence hold for the method and conditions named. Binding calls can cover weak binding; strength is not graded here.
